Tests used:
zebrafish larvae heart = assay: ZeGlobalTox cardiotoxicity evaluation (heart video, ZeCardio software); assay type: in vivo, zebrafish (Danio rerio); details: 100 hpf, 4 h after drug incubation at NOEC (haloperidol 10 µM)
Procedure: Four cardiac parameters were evaluated to assess whether a compound was cardiotoxic: heart rate (beats per minute, BPM), QTc prolongation, ejection fraction (EJF), and cardiac arrest. […] 1% DMSO was used as the negative control.
Cardiotoxicity evaluation was performed from 96 hpf, when the zebrafish heartbeat is already stabilised, so the analysis might not be altered by unstable beating. Zebrafish hearts were video-recorded at 4 h after drug incubation (100 hpf) and analysed using the ZeCardio® β software (Figure 3A).
After 4 h of drug incubation (100 hpf), zebrafish larvae were anesthetized by immersion in […] tricaine methanesulfonate (A4050, Sigma-Aldrich, Saint Louis, MO, USA)/E3 solution. […] Embryos were positioned in an agarose based mold to allow their appropriate orientation under the fluorescence stereo microscope (Olympus MVX10). Individual fluorescent hearts were recorded during 60 s each (Figure 6A). Videos were acquired with a high-speed recording camera (Hamamatsu C11440 ORCA-flash 2.8) and analysed with the ZeCardio® β software to extract different cardiac parameters—heart rate, cardiac arrest, QTc prolongation, and Ejection Fraction (EJF) (Figure 6B). […]
Heart beat frequency for each chamber is detected and frequencies are presented in the GUI as a mean. […] In the same fashion, chamber specific cardiac arrest is measured as the longest beating pause (Figure 6H). […]

humans = details: known toxicity in humans, ref TOXNET (HSDB), Side effects (EMBL), drugs.com, cited from earlier work
zebrafish larvae liver = assay: ZeGlobalTox hepatotoxicity: Oil Red O staining (steatosis and yolk lipid accumulation); details: 132 hpf, 36 h drug incubation at NOEC (paracetamol 2600 µM), DMSO 22.22%

In the case of `O=C(O)c1cn(C2CC2)c2cc(N3CCNCC3)c(F)cc2c1=O` [Ciprofloxacin, ciprofloxacin], the “QTc interval compared to DMSO-only” value (zebrafish larvae heart) is given as “shorter QTc interval”, the “Neurotoxicity (toxicity in humans)” value (humans; [22],[30],[31],[34],[35]) is given as “Toxic ^1,2,3” and the “Cardiotoxicity (toxicity in humans)” value (humans; ema.europa, [19],[20],[21]) is given as “Toxic ^1,2,3”. The “Hepatotoxicity (toxicity in humans)” value (humans; ema.europa, [24],[26],[27],[32],[33]) was “Toxic ^1,2,3” and the “Percentage of larvae presenting yolk lipid retention” value (zebrafish larvae liver) was 65%.

— PMC5412445, “ZeGlobalTox: An Innovative Approach to Address Organ Drug Toxicity Using Zebrafish” (International Journal of Molecular Sciences, 2017)
